Paper PMC5062600
These are yes or no findings as the source states them, for the method shown. Binding seen in cells or lysates may run through a third protein. Some entries that bind do so weakly or less than the wild type.

Chains of the proteins cited; added tags and fusions are not shown. Lines headed by an entry give the natural chain unless they say otherwise; changes in a name come on top. A line that says so, or that is headed by a name, gives the form on record, which may keep a tag or linker.
UniProt Q60610: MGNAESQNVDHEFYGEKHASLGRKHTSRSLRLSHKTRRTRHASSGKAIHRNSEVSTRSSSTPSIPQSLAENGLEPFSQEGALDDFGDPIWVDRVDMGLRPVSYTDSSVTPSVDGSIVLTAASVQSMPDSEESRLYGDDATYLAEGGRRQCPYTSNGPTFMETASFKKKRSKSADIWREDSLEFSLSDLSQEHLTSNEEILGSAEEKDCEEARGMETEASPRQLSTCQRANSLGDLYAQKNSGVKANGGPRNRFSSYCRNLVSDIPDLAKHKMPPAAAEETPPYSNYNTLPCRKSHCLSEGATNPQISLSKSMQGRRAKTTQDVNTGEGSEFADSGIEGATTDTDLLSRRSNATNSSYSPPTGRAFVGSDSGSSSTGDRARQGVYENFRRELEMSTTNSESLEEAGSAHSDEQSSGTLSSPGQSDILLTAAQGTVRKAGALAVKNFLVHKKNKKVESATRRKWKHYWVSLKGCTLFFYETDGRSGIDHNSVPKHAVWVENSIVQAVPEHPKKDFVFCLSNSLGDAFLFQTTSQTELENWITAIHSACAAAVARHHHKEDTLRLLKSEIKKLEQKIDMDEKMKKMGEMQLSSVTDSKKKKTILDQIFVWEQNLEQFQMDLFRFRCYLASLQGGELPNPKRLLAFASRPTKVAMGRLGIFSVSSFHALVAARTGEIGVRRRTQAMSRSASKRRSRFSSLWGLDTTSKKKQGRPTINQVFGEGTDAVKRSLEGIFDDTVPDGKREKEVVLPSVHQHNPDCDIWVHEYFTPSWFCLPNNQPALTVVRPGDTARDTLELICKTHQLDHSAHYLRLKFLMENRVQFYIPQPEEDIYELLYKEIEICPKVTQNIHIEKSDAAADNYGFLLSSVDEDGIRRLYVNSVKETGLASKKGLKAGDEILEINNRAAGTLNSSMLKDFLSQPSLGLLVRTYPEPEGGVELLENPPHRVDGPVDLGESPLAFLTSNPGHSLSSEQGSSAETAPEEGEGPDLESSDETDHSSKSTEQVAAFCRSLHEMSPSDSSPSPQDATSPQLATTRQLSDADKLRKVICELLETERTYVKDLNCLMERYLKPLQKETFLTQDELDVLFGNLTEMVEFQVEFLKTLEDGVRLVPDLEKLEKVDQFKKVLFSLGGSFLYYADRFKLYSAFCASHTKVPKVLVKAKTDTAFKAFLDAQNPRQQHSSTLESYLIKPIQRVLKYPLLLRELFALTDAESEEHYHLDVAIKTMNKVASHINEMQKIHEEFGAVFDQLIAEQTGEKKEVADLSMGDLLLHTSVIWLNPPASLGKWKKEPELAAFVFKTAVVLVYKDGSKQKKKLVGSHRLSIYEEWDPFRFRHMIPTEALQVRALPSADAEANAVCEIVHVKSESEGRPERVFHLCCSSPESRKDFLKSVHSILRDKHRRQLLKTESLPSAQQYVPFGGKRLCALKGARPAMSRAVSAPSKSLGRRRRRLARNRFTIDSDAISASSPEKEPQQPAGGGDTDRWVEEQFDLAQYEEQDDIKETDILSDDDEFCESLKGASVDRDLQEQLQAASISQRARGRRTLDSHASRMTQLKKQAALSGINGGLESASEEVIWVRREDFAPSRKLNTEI
RAR-related orphan receptor gamma (RORγt) (P51450-2, form named): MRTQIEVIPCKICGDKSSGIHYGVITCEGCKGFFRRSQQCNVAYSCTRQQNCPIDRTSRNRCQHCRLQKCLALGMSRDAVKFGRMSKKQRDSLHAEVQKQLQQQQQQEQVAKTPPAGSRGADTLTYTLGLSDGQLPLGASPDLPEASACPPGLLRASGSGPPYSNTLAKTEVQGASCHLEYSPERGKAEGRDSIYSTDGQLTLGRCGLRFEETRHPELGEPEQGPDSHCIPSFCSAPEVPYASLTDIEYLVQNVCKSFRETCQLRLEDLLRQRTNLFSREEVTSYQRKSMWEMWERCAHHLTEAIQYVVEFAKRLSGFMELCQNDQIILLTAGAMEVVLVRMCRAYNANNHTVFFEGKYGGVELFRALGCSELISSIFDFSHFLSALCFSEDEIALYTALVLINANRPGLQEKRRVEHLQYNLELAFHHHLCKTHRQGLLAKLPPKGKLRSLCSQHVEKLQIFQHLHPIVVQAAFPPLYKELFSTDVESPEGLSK

What was measured:
[1] = target: T lymphoma invasion and metastasis 1 (Tiam1) (mouse (endogenous in Th17 cells from C57BL/6 mice)) (UniProt Q60610); assay: proximity ligation; Duolink PLA on PFA-fixed, permeabilized mouse Th17 cells harvested 0, 6, 12, 24 and 48 h after the start of differentiation; rabbit anti-Tiam1 with mouse anti-Rac1 or mouse anti-RORγ; confocal imaging, 10 cells per time point
[2] = target: T lymphoma invasion and metastasis 1 (Tiam1) (mouse (endogenous in Th17 cells from C57BL/6 mice)) (UniProt Q60610); assay: co-IP; cytoplasmic and nuclear extracts (NE-PER kit, 100 μg each) of mouse Th17 cells polarized for 48 h; rabbit anti-Tiam1 (sc-872) or rabbit IgG overnight at 4 °C, Protein A magnetic beads; immunoblot for Rac1 and RORγ

RAR-related orphan receptor gamma (RORγt) (from UniProt P51450-2 1-495)
binding [1]: binds | binding [2]: binds
